# Laboratory results as given in the supplement of paper PMC10338343.
# ± gives the standard deviation. The entries are a selection whose mix differs from that of the whole data set. Many entries were measured with a wide error.
# Test system: MILI (PIWIL2) piRISC loaded with piRNA #2 (26 nt)
# Assay: pre-steady-state target cleavage rate (min^-1); MIWI and MILI are mouse PIWI proteins and EfPiwi is from a freshwater sponge; tags in brackets are library labels; higher = faster piRNA-guided slicing of the target
# Details: guide: piRNA #2 5'p-UUAGGUAACCCAGUAGAUCCAGAGGA; auxiliary factor: 500 nM mouse GTSF1
# Method: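 Cleave-'n-Seq: a library of target RNAs (target site embedded in constant flanks, ACAGCATTCCGCGTTAGTGATATCCG... 5' flank; DNA-blocked outside the site) at 0.1 nM was incubated with 1 nM active mouse MILI or MIWI piRISC (synthetic 5'-monophosphorylated piRNA guide) with or without 500 nM mouse GTSF1 at 33 °C for 1 min to 16 h. Uncleaved targets were sequenced and normalised to non-target controls, and the pooled three trials were fitted to a burst-and-steady-state model to give the pre-steady-state cleavage rate (min^-1; k3 is constrained to at most 1e-4). Sequence is the target site only; target names encode pairing extent (gX:gY) and contiguous / 1-mismatch / 2-mismatch / bulge geometry. Fits with R² ≤ 0 are excluded.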
row,Sequence,pre-steady-state target cleavage rate
1,CUUAAGGUCUGGAUCUACUGCCUUACCUAA,0.000395 ± 0.02
2,CUUAAGGAGACCAUCUACUGCGUUAGCUAA,0.000199 ± 0.036
3,CUUAAGGACUCGAUCUACUGGGUUACCUAA,0.0128 ± 0.0065
4,CUUAAGGAGACCUUCUACUGGUUACCUAA,0.000548 ± 0.0072
5,CUUAAGGAGACCUAGAUGGGGGUUACCUAA,0.000504 ± 0.031
6,CUUAAGGAGACCUUCUACAGGGUAACCUAA,0.000458 ± 0.016
7,CUUAAGGAGACCUAGAUGAGGGUUACCUGAA,0.00032 ± 0.023
8,CUUAAGGAGACCAUCUACUGGGCUUACCUAA,0.000654 ± 0.02
9,CUUAACCUCUGGAUCUAGACGGUUACCUAA,0.00288 ± 0.0035
10,CUUAAGCUCUGUAUCUACUGGGUUACCUAA,0.0444 ± 0.0099
11,CUUAAGGAGACGAUCUACUGGUGUUACCUAA,0.00091 ± 0.0058
12,CUUAAGGAGAGGUUCUACUGGCUUACCUAA,0.000816 ± 0.0095
13,CUUAAGGAGACGAUCUUCUGCGUUACCUAA,0.00256 ± 0.0031
14,CUUAACCUGUGGAUCUACUCGGUUACCUAA,0.00105 ± 0.013
15,CUUAAGGAGACCUUGAACUGGGUUACCUAA,0.000419 ± 0.017
16,CUUAAGGAGAGGAUCUAGUGGGUUACCUAA,0.00355 ± 0.0048
17,CUUAAGGAGACCUUCUAAUGGGUUACCUAA,0.000416 ± 0.016
18,CUUAAGGAGACCUACUGACUGGGUUACCUAA,0.000103 ± 0.05
19,CUUAAGGAGACGAUGUACUGGGUAACCUAA,0.000175 ± 0.019
20,CUUAAGGAGAGCAUCUACUGGGUUAGCUAA,0.00261 ± 0.0045
21,CUUAAGGAGACGAUCUACUGGGUUACCAAA,0.00117 ± 0.006
22,CUUAAGGAGACCAUCUAACUGGGUUACCUAA,0.000887 ± 0.0093
23,CUUAAGCUCUGGAUUACUGGGUUACCUAA,0.0142 ± 0.0047
24,CUUAAGGAGACCUAGUACUGGGUUAACUAA,0.000258 ± 0.022

row,Sequence,pre-steady-state target cleavage rate
1,CUUAAGGUCUGGAUCUACUGGGUUACCCAA,0.00342 ± 0.0051
2,CUUAAGCUCUGGAUCUACUGGGUUUCGUAA,0.0193 ± 0.0086
3,CUUAAGGAGUGGAUCUACGUGGGUUACCUAA,0.000183 ± 0.036
4,CUUAAGGAGACCUACGUACUGGGUUACCUAA,0.000297 ± 0.037
5,CUUAAGGAGAGGAUUCUACUGGGUUACCUAA,0.00418 ± 0.0043
6,CUUAAGGAGAGGAUGUACUGGGUUACCAAA,0.000383 ± 0.026
7,CUUAAGGAGUCGAUCUACUGGGUUUCCUAA,0.00241 ± 0.0043
8,CUUAAGGAGACCAUCUACUGGGUUGACCUAA,0.000514 ± 0.027
9,CUUAAGGAGACCAUGUACUGGGUUACGUAA,0.000293 ± 0.018
10,CUUAAGGAGACCUAGAUCAGCGUUACCUAA,0.000214 ± 0.039
11,CUUAAGGACUGGAUCAACUGGGAUACCUAA,0.00247 ± 0.014
12,CUUAAGGAGAGGUUCUACUGGGUUAGCUAA,0.000608 ± 0.01
13,CUUAAGGAGACCUAGAUGACCCAUACCUAG [g2:g7:cont:t1G],0.000117 ± 0.046
14,CUUAUCCUCUGGGUCUACUGGGUUACCUAA,0.206 ± 0.035
15,CUUAAGGAGACCUUCUACUGCGUUACCAAA,0.000139 ± 0.021
16,CUUAAGGAGACGAUCUACAGGGUUAGCUAA,0.000979 ± 0.0072
17,CUUAAGGUCUGCAUCUACUGGGUUACCAAA,0.0157 ± 0.0062
18,CUUAAGGAGACCUAGUACGGGGUUACCUAA,0.000434 ± 0.026
19,CUUAAGGACUGGAACUACUGGGAUACCUAA,0.00304 ± 0.0099
20,CUUAAGGACUGGAUCUACUGGGUGACCUAA,0.00583 ± 0.0079
21,CUUAAGGAGACCUUCUAGUGGGUUACCUAA,0.000529 ± 0.013
22,CUUAAGGAGAGGAUCUUCUGGGUUACCUUA,0.00299 ± 0.0054
23,CUUAAGGAGACCUAGAUGUGGUUUACCUAA,0.000501 ± 0.018
24,CUUAAGGAGACCAUCUACUCGGUUACCAAA,0.000489 ± 0.018

row,Sequence,pre-steady-state target cleavage rate
1,CUUAAGGAGACCUUCUACUGAGGUUACCUAA,0.00046 ± 0.011
2,CUUAAGGAGACCUUCUACUGGGUUACAUAA,0.000429 ± 0.029
3,CUUAAGGAGUGGAUCCUACUGGGUUACCUAA,0.00226 ± 0.004
4,CUUAAGGAGACCUCCUACUGGGUUACCUAA,0.000901 ± 0.011
5,CUUAAGGUCAGGUUCUACUGGGUUACCUAA,0.0166 ± 0.0093
6,CUUAAGGACUCGAUGUACUGGGUUACCUAA,0.00742 ± 0.0086
7,CUUAAGGAGACCUACUACUAGGUUACCUAA,0.000491 ± 0.0084
8,CUUAAGGAGUGGAUCAACUGGGUAACCUAA,0.00359 ± 0.0059
9,CUUAAGGAGACCAUCUACUGGGUUACCUAAA,0.00169 ± 0.0083
10,CUUAAGGAGUGGAUCUUCUGGGUUUCCUAA,0.00305 ± 0.0036
11,CUUAAGCUCUGGAUCUUGAGGGUUACCUAA,0.0041 ± 0.0045
12,CUUAAGGAGAGGAUCUACUGGGUUACUCUAA,0.000808 ± 0.016
13,CUUAUCCUCUGGAUCUACUGGGUUAGGAUA [g6:g26:cont:t1A],0.000628 ± 0.014
14,CUUAACCACUGGAUCUACUGGCUUACCUAA,0.00067 ± 0.016
15,CUUAAGGAGUCGAUCUUCUGGGUUACCUAA,0.00165 ± 0.0048
16,CUUAAGCUCAGGAUCUACUGGGUUUCCUAA,0.0265 ± 0.01
17,CUUAAGGAGAGGAUCUACUGGAUUACCUAA,0.000891 ± 0.018
18,CUUAACCUCUGGACUACUGGGUUACCUAA,0.156 ± 0.037
19,CUUAAGGAGAGCAUCAACUGGGUUACCUAA,0.00272 ± 0.0041
20,CUUAAGGAGACCUAGAUCUGCGUUACCUUA,0.000142 ± 0.061
21,CUUAAGGACUCGAUCAACUGGGUUACCUAA,0.00138 ± 0.011
22,CUUAAGGAGACCUAAUACUGGGUUACCUAA,0.000544 ± 0.012
23,CUUAACCUCUGGAUCAACUGGCUUACCUAA,0.00047 ± 0.02

# A different layout for part of the listing above.
row	Sequence	pre-steady-state target cleavage rate
21	CUUAAGGAGACGAUCUACUGGGUUACCAAA	0.00117 ± 0.006
15	CUUAAGGAGACCUUCUACUGCGUUACCAAA	0.000139 ± 0.021
20	CUUAAGGACUGGAUCUACUGGGUGACCUAA	0.00583 ± 0.0079
23	CUUAAGGAGACCUAGAUGUGGUUUACCUAA	0.000501 ± 0.018
